In patent publication US20050079188A1, “Base for external preparations for the skin and cosmetic containing the same” (priority 2001, published 2005):

What was measured:
professional panelists [1] = assay: Organoleptic assessment of aqueous solution containing 10% by weight of the compound; assay type: in vivo; settings: 10% by weight aqueous solution applied on upper arm, total score of 10 panelists, immediately after to 30 minutes after application, 35 or higher favorable; for Sticky feeling: five-grade sticky-free (smooth) feeling; for Moist feeling: five-grade system
professional panelists [2] = assay: Organoleptic assessment of creams containing 4.0 wt % test compound; assay type: in vivo; settings: cream with 4.0 wt % test compound, total score of 10 panelists, 35 or higher favorable; for Sticky feeling: five-grade sticky-free feeling; for Moist feeling: five-grade system

| SMILES | Sticky feeling (professional panelists [1]) | Moist feeling (professional panelists [1]) | Sticky feeling (professional panelists [2]) | Moist feeling (professional panelists [2]) |
| --- | --- | --- | --- | --- |
| CCCCCCOCCOCCOCCOCCOCCOCCOCCCCCC [C6H13O(EO)6C6H13] | 39 | 30 | 38 | 31 |
| CC(O)CO (centres unmarked) [Propylene glycol] | 18 | 42 | 32 | 39 |
